{
  "sequences": {"note": "The chains behind the UniProt entries cited, without tags or fusion partners.", "UniProt Q14145": "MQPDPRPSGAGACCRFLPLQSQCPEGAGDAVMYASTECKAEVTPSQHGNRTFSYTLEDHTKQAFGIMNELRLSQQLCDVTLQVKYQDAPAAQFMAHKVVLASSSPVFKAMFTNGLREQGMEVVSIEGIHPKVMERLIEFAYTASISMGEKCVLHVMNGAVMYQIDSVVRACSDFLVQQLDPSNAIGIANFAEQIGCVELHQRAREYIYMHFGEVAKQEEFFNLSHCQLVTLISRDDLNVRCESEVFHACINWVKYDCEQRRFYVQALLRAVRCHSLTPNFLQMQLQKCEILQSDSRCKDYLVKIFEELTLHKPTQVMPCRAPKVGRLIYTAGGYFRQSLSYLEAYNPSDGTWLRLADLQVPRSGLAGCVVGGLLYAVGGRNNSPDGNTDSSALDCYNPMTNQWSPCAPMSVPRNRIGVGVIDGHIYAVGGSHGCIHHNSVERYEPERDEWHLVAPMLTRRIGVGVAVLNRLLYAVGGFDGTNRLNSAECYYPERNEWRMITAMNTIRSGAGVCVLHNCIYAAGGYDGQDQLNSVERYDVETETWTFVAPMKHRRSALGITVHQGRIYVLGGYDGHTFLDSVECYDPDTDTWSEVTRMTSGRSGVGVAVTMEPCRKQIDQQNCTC"},
  "source": "paper PMC9082862",
  "molecules": {"B1": {"name": "Flag-TRIM15 (protein, UniProt Q9C019 1-465)", "chain": "MPATPSLKVVHELPACTLCAGPLEDAVTIPCGHTFCRLCLPALSQMGAQSSGKILLCPLCQEEEQAETPMAPVPLGPLGETYCEEHGEKIYFFCENDAEFLCVFCREGPTHQAHTVGFLDEAIQPYRDRLRSRLEALSTERDEIEDVKCQEDQKLQVLLTQIESKKHQVETAFERLQQELEQQRCLLLARLRELEQQIWKERDEYITKVSEEVTRLGAQVKELEEKCQQPASELLQDVRVNQSRCEMKTFVSPEAISPDLVKKIRDFHRKILTLPEMMRMFSENLAHHLEIDSGVITLDPQTASRSLVLSEDRKSVRYTRQKKSLPDSPLRFDGLPAVLGFPGFSSGRHRWQVDLQLGDGGGCTVGVAGEGVRRKGEMGLSAEDGVWAVIISHQQCWASTSPGTDLPLSEIPRGVRVALDYEAGQVTLHNAQTQEPIFTFTASFSGKVFPFFAVWKKGSCLTLKG"}, "B2": {"name": "endogenous TRIM15 (protein, UniProt Q9C019 1-465)", "chain": "B1 chain"}},
  "key": {"Flag-TRIM15": {"molecular_target": "T1, Flag-TRIM15 (UniProt Q9C019)", "T1 sequence": "B1 chain", "assay": "co-IP; HEK293 cells expressing Flag-TRIM15 and HA-Keap1; reciprocal; IP lysis buffer 20 mM Tris pH 7.5, 150 mM NaCl, 1% TritonX-100, 1 mM EDTA; protein A/G agarose beads overnight"}, "HA-Keap1": {"molecular_target": "HA-Keap1 (UniProt Q14145)", "assay": "co-IP; HEK293 cells expressing Flag-TRIM15 and HA-Keap1; reciprocal; IP lysis buffer 20 mM Tris pH 7.5, 150 mM NaCl, 1% TritonX-100, 1 mM EDTA; protein A/G agarose beads overnight"}, "[1]": {"molecular_target": "endogenous Keap1 (human (endogenous in H1299 and H1975)) (UniProt Q14145)", "assay": "co-IP; endogenous proteins in lysates of H1299 and H1975 cells; antibodies against TRIM15 and Keap1 or negative control IgG, protein A/G agarose beads overnight; IP lysis buffer 20 mM Tris pH 7.5, 150 mM NaCl, 1% TritonX-100, 1 mM EDTA"}},
  "note": "These are yes or no findings as the source states them, for the method shown. Binding seen in cells or lysates may run through a third protein. Some binding calls cover weakened binding; strength is not graded here. For part of these data: Tags and fused reporters may be left off the sequences shown.",
  "data": [
    {"molecule": "HA-Keap1 (from UniProt Q14145 1-624)", "values": [
      {"measurement": "binding", "setting": "Flag-TRIM15", "value": "binds"}
    ]},
    {"molecule": "B1", "values": [
      {"measurement": "binding", "setting": "HA-Keap1", "value": "binds"}
    ]},
    {"molecule": "B2", "values": [
      {"measurement": "binding", "setting": "[1]", "value": "binds"}
    ]}
  ]
}
